Results are given in words; binding and its absence hold for the method and conditions named. Binding seen in cells or lysates may run through a third protein. Some entries that bind do so weakly or less than the wild type.
Tests used:
[1] = molecular target: eIF4E (human (endogenous in HeLa)) (UniProt P06730); experiment: pull-down; cap pulldown as a1, cytoplasmic lysates of HeLa cells treated with Torin1 (200 nM, mTORC1 inhibition); γ-aminophenyl-m7GTP agarose beads; Western blot
[2] = molecular target: eIF4E (human (endogenous in HeLa)) (UniProt P06730); experiment: pull-down; cap pulldown: cytoplasmic lysates of HeLa cells treated with DMSO or Ro3306 (10 µM, 4 or 16 h); γ-aminophenyl-m7GTP agarose beads overnight at 4°C, eIF4E held by the cap analogue; 150 mM NaCl, 1 mM EDTA, NP-40 buffers; Western blot

By UniProt entry, the sequences of proteins in these tests, tags left out.
UniProt P06730: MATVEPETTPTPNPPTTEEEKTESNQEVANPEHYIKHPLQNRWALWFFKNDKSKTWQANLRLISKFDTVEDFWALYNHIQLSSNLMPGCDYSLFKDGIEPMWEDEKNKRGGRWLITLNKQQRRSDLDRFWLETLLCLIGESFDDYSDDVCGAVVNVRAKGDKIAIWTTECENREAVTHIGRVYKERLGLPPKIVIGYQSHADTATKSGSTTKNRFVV
UniProt P55884: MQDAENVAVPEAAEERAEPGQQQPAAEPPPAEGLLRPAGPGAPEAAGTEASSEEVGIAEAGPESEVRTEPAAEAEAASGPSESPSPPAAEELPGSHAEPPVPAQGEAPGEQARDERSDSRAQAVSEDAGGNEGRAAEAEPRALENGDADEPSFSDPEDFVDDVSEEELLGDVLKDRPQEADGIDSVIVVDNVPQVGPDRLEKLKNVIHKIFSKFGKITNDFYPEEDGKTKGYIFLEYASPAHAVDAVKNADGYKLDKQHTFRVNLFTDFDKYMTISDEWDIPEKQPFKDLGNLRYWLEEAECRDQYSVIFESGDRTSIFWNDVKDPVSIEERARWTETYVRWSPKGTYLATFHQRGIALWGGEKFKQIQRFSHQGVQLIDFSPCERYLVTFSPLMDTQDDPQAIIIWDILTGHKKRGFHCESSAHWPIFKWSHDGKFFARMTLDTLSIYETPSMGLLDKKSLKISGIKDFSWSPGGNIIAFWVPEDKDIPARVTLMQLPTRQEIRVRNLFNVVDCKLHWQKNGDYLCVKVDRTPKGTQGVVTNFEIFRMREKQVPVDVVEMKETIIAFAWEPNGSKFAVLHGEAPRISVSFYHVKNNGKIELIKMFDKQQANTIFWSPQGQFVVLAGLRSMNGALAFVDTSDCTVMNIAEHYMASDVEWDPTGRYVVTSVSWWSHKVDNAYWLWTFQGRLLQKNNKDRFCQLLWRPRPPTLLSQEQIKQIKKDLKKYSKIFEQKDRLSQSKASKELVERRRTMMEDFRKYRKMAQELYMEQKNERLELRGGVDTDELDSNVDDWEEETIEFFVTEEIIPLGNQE

- binding [2]: binds
Substance: eIF3B (from UniProt P55884 1-814)
- binding [1]: no binding (condition: cells treated with Torin1 (200 nM))

From paper PMC7054999
